According to PubChem BioAssay AID652054 (National Center for Advancing Translational Sciences (NCATS), 2013):
In all, about 360,000 compounds went through this assay and about 9,100 (2.5%) were called active. The shares of active, inactive and inconclusive entries below differ from those in the screen. Cut-off read from the data, not from the text of the source: active = max response below about -50%; inconclusive = no clear call, values can overlap the other calls; inactive = above that.

By UniProt entry, the sequences of proteins in these tests, tags left out.
UniProt P35462, whole entry, looked up: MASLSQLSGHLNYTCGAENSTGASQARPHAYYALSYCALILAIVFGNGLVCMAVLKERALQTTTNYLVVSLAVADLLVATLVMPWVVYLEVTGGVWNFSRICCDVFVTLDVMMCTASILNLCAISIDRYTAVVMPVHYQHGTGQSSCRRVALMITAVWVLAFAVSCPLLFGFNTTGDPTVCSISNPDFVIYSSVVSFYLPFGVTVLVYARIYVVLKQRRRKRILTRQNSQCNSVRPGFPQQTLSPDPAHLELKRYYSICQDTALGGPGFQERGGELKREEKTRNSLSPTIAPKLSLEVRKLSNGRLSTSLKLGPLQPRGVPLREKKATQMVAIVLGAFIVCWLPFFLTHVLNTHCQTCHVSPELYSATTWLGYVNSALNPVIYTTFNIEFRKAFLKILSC

Target: D(3) dopamine receptor (Homo sapiens) (UniProt P35462)
Test: qHTS of D3 Dopamine Receptor Antagonist: qHTS
Settings: D3R cells, DiscoveRx beta-arrestin luminescence, antagonist mode; stronger effect = lower value
Source text: D3 DARs represent a very important target for the treatment of several neuropsychiatric disorders. Indeed, one of the most promising therapeutic applications for the D3 DAR is in the area of addiction and related disorders. […] These findings have been observed with a number of addictive substances including cocaine, amphetamine, nicotine, and alcohol. […] Antagonism of the D3 DAR may also be therapeutic in the treatment of schizophrenia or psychosis. […] Since the D3 DAR is expressed in areas of the CNS associated with the control of mood and emotion, it has been hypothesized that selective antagonism of the D3 DAR may be effective in treating psychosis without inducing the motor side effects typically seen with D2 DAR antagonists.
This part of the project aims to discover novel antagonist.
NIH Chemical Genomics Center [NCGC]
NIH Molecular Libraries Probe Centers Network [MLPCN]
Assay Submitter (PI): David Sibley, NINDS
Freshly passaged cells are plated in 1536 well white, solid bottom plates at a density of 1500 cells/well in 3microl of complete media. After an overnight incubation at 37 degrees C in 5% CO2, cells are loaded with 23nl of test compound from the compound library (as well as dopamine controls) using a 1536 pintool and incubated at 37 degrees C for 90 minutes. Two microliters of DiscoveRx reagent is then added to all cells, and they are incubated for an additional 30 - 60 minutes at room temperature. Following incubation, luminescence is measured on a ViewLux CCD-based luminometer reader using a 20 sec exposure time.
% is set by controls: 0 for no effect and ±100 for the full control effect.

Structure (SMILES) | max response, negative = inhibition
COc1cccc(C(=O)NCCS(=O)(=O)N2CCc3ccccc3C2)c1 | inconclusive: -33.3%
CCc1ccc(/C=C2/SC(=S)N(CC(=O)Nc3nc4ccccc4s3)C2=O)cc1 | inconclusive: -35.8%
CCOC(=O)c1ccc(NC(=O)CN(C)S(=O)(=O)c2ccc(OC)cc2)cc1 | inactive: 12.5%
O=C(CN1CCN(c2ccccn2)CC1)Nc1ccc(Cl)c(C(F)(F)F)c1 | active: -66.1%
Fc1ccccc1COc1ccc(Br)cc1CNCc1ccncc1 | active: -68.4%
O=C(Cc1cccs1)N[C@@H]1c2ccccc2CC[C@H]1OCc1ccccc1 | inconclusive: -41.7%
CC(C)(C)Cc1nc2ccccc2n1CCc1ccccc1 | inconclusive: -36.1%
COc1ccc(S(N)(=O)=O)cc1C(=O)OCC(=O)N1CC(=O)Nc2ccccc21 | inactive: -18.9%
CCOC(=O)C1(C/C(C)=N/NC(N)=O)CC(C)OC1=O (stereo not drawn) | inactive: 9.58%
O=C(CN1CCN(C2CCCCC2)CC1)c1c[nH]c2ccccc12 | active: -68.9%
CN(CC(=O)Nc1ccc(Cl)c(C(F)(F)F)c1)C(=O)c1ccc(N2CCOCC2)c([N+](=O)[O-])c1 | inconclusive: -30.6%
CSc1ccccc1OC1CCN(Cc2ccccc2)CC1 | active: -92%
COc1cccc(NC(=O)COC(=O)C2C3CC4OC(=O)C2C4C3)c1 (stereo not drawn) | inactive: 8.35%
O=C(O)c1nccnc1C(=O)N1CCN(c2ccccc2)CC1 | inconclusive: -42.9%
OCCNCCOc1ccccc1-c1ccccc1 | active: -75.9%
O=C(C1=C[C@@H](c2csc3ccccc23)C[C@@H](OCc2ccc(CO)cc2)O1)N1CCN(Cc2ccc3c(c2)OCO3)CC1 | inconclusive: -31.3%
CCn1c(O)c(N=NC(=O)CNC(=O)/C=C/c2ccccc2)c2ccccc21 | inconclusive: -30.6%
Cc1ccccc1CSCC(=O)c1c(N)n(C)c(=O)n(C)c1=O | inconclusive: -33.1%
Clc1ccc(C(c2nnnn2CCc2ccccc2)N2CCSCC2)cc1 (stereo not drawn) | inconclusive: -48.7%
O=C(Cc1ccccc1)Nc1ccc(N2CCN(Cc3ccccc3F)CC2)cc1 | active: -51.5%

Structure (SMILES) | max response, negative = inhibition
CC(=O)NC(c1ccccc1)c1nc(-c2ccccc2C)cs1 (stereo not drawn) | inactive: -13.7%
CC(C)(C)c1ccc(NC(=S)NCc2cccs2)cc1 | inconclusive: -34.5%
O=C1Nc2ccccc2N=C(c2ccccc2)C1Br (stereo not drawn) | inactive: 12.7%
CCC1=NN(C(=O)CCc2ccccc2)C(O)(C(F)(F)F)C1 (stereo not drawn) | inconclusive: -34%
Cc1cc(C)n(/N=C/c2c[nH]c3ccccc23)c(=O)c1C#N | inconclusive: -32.2%
O=C(Sc1ccc(Cl)cc1)c1cccc(Cn2cc(C(F)(F)F)ccc2=O)c1 | inconclusive: -35.1%
FC(F)(F)c1cccc(CN2CCC(c3cc(-c4cccs4)n[nH]3)CC2)c1 | active: -80.5%
CSc1nc(NCc2ccccc2)c2c3c(sc2n1)CN(C)CC3 | active: -76%
O=C1Nc2ccccc2C(=O)C1(Cl)Cc1ccccc1 (stereo not drawn) | inconclusive: -48.6%
O=C(CCCn1c(=O)c2ccccc2n(Cc2ccccc2)c1=O)NCc1ccco1 | inconclusive: -32.5%
Cc1ccc(NC(=O)CN2CCc3ccccc3C2)cc1 | active: -84.2%
CN1CCC(=NNC(=O)CN(c2ccc([N+](=O)[O-])cc2)S(=O)(=O)c2ccccc2)CC1 | inactive: 2.76%
Cc1ccc(NC(=O)c2ccc(CN3CCc4ccccc4C3)cc2)cc1 | active: -85.1%
C[C@H](OC(=O)N1CCN(C(c2ccccc2)c2ccccc2)CC1)[C@@H]1O[C@@]2(C)CCC[C@H]1O2 | inactive: -18.1%
Cc1cc(C)cc(NC(=O)C(=S)NCc2ccccc2)c1 | inconclusive: -30.4%
CCC(=S)/C=C1\Sc2ccccc2N1CCCS(=O)(=O)O | active: -63.4%
CCN1CCN(c2ncnc3scc(-c4ccc(C)c(C)c4)c23)CC1 | inconclusive: -34.3%
COc1cc2c(cc1OC)C(=O)C(Br)CC2 (stereo not drawn) | inconclusive: -45.1%
O=C(CN1CCCC1)N1CCCc2ccccc21 | inconclusive: -36.8%
CCOC(=O)C1CCCN(Cc2ccc(O)c(OC)c2)C1 (stereo not drawn) | inconclusive: -34.5%

Structure (SMILES) | max response, negative = inhibition
N#Cc1ccc(C#Cc2ccc3oc4ccccc4c(=O)c3c2)cc1 | inconclusive: -47.5%
CNc1c(C(=O)O)ccc2c1C(=O)c1ccccc1C2=O | active: -73.6%
O=C1C(Cc2ccccc2)Nc2ncnc(N3CCN(c4ccccc4)CC3)c2N1Cc1ccc(Cl)cc1 (stereo not drawn) | active: -128%
N#CC(C(=O)NCc1ccco1)c1nc2ccccc2nc1N1CCOCC1 (stereo not drawn) | inconclusive: -31.7%
Cc1ccc(NC(=O)CN2CCCCCC2)cc1Br | active: -85.1%
Cc1onc(-c2ccccc2Cl)c1C(N)=O | inactive: 0%
COc1ccc(NC(=O)Cn2nnc(C(=O)Nc3ccccc3C)c2N)cc1 | inactive: -20%
CCOC(=O)N1CCN(C(=O)CCCn2c(=S)[nH]c3ccc(Br)cc3c2=O)CC1 | inactive: 52.9%
O=C(Nc1ccc(F)cc1)c1ccc(C(=O)N2CCOCC2)cc1 | inconclusive: -47.3%
C=CCn1c(N)cc(=O)nc1SCC(=O)Nc1ccc(C(=O)OCC)cc1 | inconclusive: -33.5%
CC(NC(=O)c1ccco1)c1cccc2ccccc12 (stereo not drawn) | inconclusive: -34.2%
O=S(=O)(Cc1ccccc1)NCC1CCCN(Cc2cccc3nonc23)C1 (stereo not drawn) | inconclusive: -37.9%
Cc1ccc(C)c(-c2cc(C(=O)Nc3nccs3)c3ccccc3n2)c1 | inactive: 5.44%
CN(C(=O)c1ccco1)c1nc(CC(=O)Nc2ccccc2)cs1 | inconclusive: -45.9%
O=C(Nc1ccccc1)N(CCc1nc2ccccc2[nH]1)C1CCCC1 | inconclusive: -48%
CC1CC(C)CN(Cc2nc(N)nc(Nc3ccc4ccccc4c3)n2)C1 (stereo not drawn) | inconclusive: -39.4%
CCn1c(SCC(=O)Nc2sc3c(c2C#N)CCCC3)nnc1-c1ccco1 | active: -72%
CCOC(=O)c1c(C)[nH]c(C)c1C(=O)CSc1nc2ccccc2c(=O)n1-c1ccc(CC)cc1 | inactive: 27.3%

Rewritten tab-delimited: 18 of the compounds above.
Structure (SMILES)	max response, negative = inhibition
O=C(CN1CCCC1)N1CCCc2ccccc21	inconclusive: -36.8%
CCOC(=O)C1CCCN(Cc2ccc(O)c(OC)c2)C1 (stereo not drawn)	inconclusive: -34.5%
N#Cc1ccc(C#Cc2ccc3oc4ccccc4c(=O)c3c2)cc1	inconclusive: -47.5%
CNc1c(C(=O)O)ccc2c1C(=O)c1ccccc1C2=O	active: -73.6%
O=C1C(Cc2ccccc2)Nc2ncnc(N3CCN(c4ccccc4)CC3)c2N1Cc1ccc(Cl)cc1 (stereo not drawn)	active: -128%
N#CC(C(=O)NCc1ccco1)c1nc2ccccc2nc1N1CCOCC1 (stereo not drawn)	inconclusive: -31.7%
Cc1ccc(NC(=O)CN2CCCCCC2)cc1Br	active: -85.1%
Cc1onc(-c2ccccc2Cl)c1C(N)=O	inactive: 0%
COc1ccc(NC(=O)Cn2nnc(C(=O)Nc3ccccc3C)c2N)cc1	inactive: -20%
CCOC(=O)N1CCN(C(=O)CCCn2c(=S)[nH]c3ccc(Br)cc3c2=O)CC1	inactive: 52.9%
O=C(Nc1ccc(F)cc1)c1ccc(C(=O)N2CCOCC2)cc1	inconclusive: -47.3%
C=CCn1c(N)cc(=O)nc1SCC(=O)Nc1ccc(C(=O)OCC)cc1	inconclusive: -33.5%
CC(NC(=O)c1ccco1)c1cccc2ccccc12 (stereo not drawn)	inconclusive: -34.2%
O=S(=O)(Cc1ccccc1)NCC1CCCN(Cc2cccc3nonc23)C1 (stereo not drawn)	inconclusive: -37.9%
Cc1ccc(C)c(-c2cc(C(=O)Nc3nccs3)c3ccccc3n2)c1	inactive: 5.44%
CN(C(=O)c1ccco1)c1nc(CC(=O)Nc2ccccc2)cs1	inconclusive: -45.9%
O=C(Nc1ccccc1)N(CCc1nc2ccccc2[nH]1)C1CCCC1	inconclusive: -48%
CC1CC(C)CN(Cc2nc(N)nc(Nc3ccc4ccccc4c3)n2)C1 (stereo not drawn)	inconclusive: -39.4%
